The nature of the assay: qHTS Assay for Lipid Storage Modulators in Drosophila S3 Cells.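 For cell number change: cells counted by Cell Tracker Red CMTPX staining in the red channel.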 Particulars: BODIPY lipid droplet fluorescence, 18-24 h; for cell number change: measured here: cell count max response, cells fed with added oleic acid. The procedure, abridged:
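Laser-scanning cytometry quantifies lipid droplet accumulation (500–530 nm total intensity; droplet/cell object ratio) in oleic acid-fed (400 uM added) Drosophila S3 cells treated with a concentration series. 20 uM Triacsin C defined 100% inhibition.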

The mark [1] stands for this setting: measured here: lipid fluorescence (Fed channel) AC50, cells fed with added oleic acid.
Setting [2] is: measured here: cell number channel AC50, cells fed with added oleic acid.

The structures appear in SMILES notation. Some of the results follow. Further columns of the screen follow, without active or inactive calls. Most of these compounds were active or inconclusive in the main read-out, so they are no random draw. The note in brackets gives the kind of curve behind each potency; many fits are weak.

A word on the AC50: it is the concentration at which the activity in the assay is half-maximal. Lower therefore signals activity at low concentration.

With `COc1ccc(NC(=O)Cc2nnc(SCC(=O)NC3=NCCS3)n2C)cc1`, the cell number change amounted to 22.2%.

As to `Cc1ccc([N+](=O)[O-])c(OCCCNCC(C)O)c1` (stereo not given), the AC50 under setting [1] was 17.8 µM [rising, single point].

In the case of `Cc1ccc(C(=O)NC(=S)N2CC(C)OC(C)C2)cc1[N+](=O)[O-]` (stereo not given), the cell number change is -34.4%. The AC50 under setting [2] was 32.6 µM [falling, single point].

For `O=C(NNC(=O)C1CCN(S(=O)(=O)c2ccc(Cl)cc2)CC1)c1ccc(S(=O)(=O)N2CCCCC2)cc1`, the cell number change is -5.46%. For the same compound, the AC50 under setting [2] is 6.51 µM [rising, single point]. Under setting [1], the AC50 is 8.2 µM [rising, partial curve].

As to `CCCCc1c(C)nc2ccc(C)cc2c1SCCC(=O)O`, the cell number change was found to be 1.47%.

As to `COc1ccc(/C(C)=N/Nc2ccc(C(=O)O)cc2)cc1OC`, the cell number change is -2.3%. In addition, the AC50 under setting [2] was 0.731 µM [rising, single point]. Also, the AC50 under setting [1] was 2.31 µM [rising, full curve, poor fit].

`O=C1CN(C(=O)COC(=O)c2cccc(S(=O)(=O)NCc3ccccc3)c2)c2ccccc2N1`: the cell number change is -32%. Also, the AC50 under setting [2] was 25.9 µM [falling, single point]. For the same compound, under setting [1], the AC50 was 7.31 µM [falling, partial curve].

In the case of `Cn1c(=O)c2c(nc(-n3ccnc3)n2Cc2ccc([N+](=O)[O-])cc2)n(C)c1=O`, the AC50 under setting [2] is 0.184 µM [rising, single point] and the AC50 under setting [1] was 0.0411 µM [rising, full curve, poor fit].

Turning to `CCN1CCN(c2ccc(S(=O)(=O)N3CCCCC3)cc2NC(=O)c2sccc2C)CC1`, the cell number change was -24.3%. Further, the AC50 under setting [1] is 18.4 µM [falling, single point].

On to `CCOc1ccc(S(=O)(=O)N(C)c2ccc(OCC(=O)NCC3CCCO3)cc2)cc1` (stereo not given), for which the cell number change was -19.5%. Further, the AC50 under setting [1] is 0.259 µM [falling, full curve, poor fit].

In the case of `Fc1ccc(-c2nnc(N3CCOCC3)c3ccccc23)cc1F`, under setting [1], the half-maximal activity concentration (AC50) is 0.517 µM [rising, full curve].

On to `N#Cc1c(N)nc2c(c1-c1ccccc1)CCCC2`, for which the cell number change was found to be 37.5%. Further, the AC50 under setting [2] is 7.31 µM [rising, single point].

Consider `Cc1c(C(=O)N(Cc2ccncc2)CC2CCCO2)oc2c(F)cccc12` (stereo not given), for which the cell number change is -34%. Besides, the AC50 under setting [2] was 29.1 µM [falling, single point]. Further, under setting [1], the half-maximal activity concentration (AC50) is 18.4 µM [falling, partial curve, poor fit].

Regarding `Cc1cccc(NC2=C/C(=N/S(=O)(=O)c3cccs3)c3ccccc3C2=O)c1`, the cell number change stood at 16.8%. The AC50 under setting [1] was 5.8 µM [rising, partial curve].

As to `Cc1ccccc1C(=O)N1CCN(c2ncccn2)CC1`, the cell number change worked out at 4.5%. Moreover, the half-maximal activity concentration (AC50) under setting [1] is 0.00461 µM [rising, full curve, poor fit].

Consider `O=C(c1cc(F)c(F)cc1Cl)N1CCOCC1`, for which the cell number change was 33.6%. The AC50 under setting [2] is 5.17 µM [rising, full curve, poor fit].

For the compound `CCCCC(=O)Nc1ccc(NC(=O)c2ccc(C)c([N+](=O)[O-])c2)cc1OC`, the cell number change amounted to 2.08%. For the same compound, the AC50 under setting [1] is 18.4 µM [rising, single point].

On to `Cc1cc(Cl)ccc1OCCCC(N)=O`, for which the cell number change is 0.146%.

Regarding `CCOC(=O)c1cnn(-c2nc(CC)nc3sc4c(c23)CCC4)c1N`, the cell number change came to 14.1%. Moreover, under setting [1], the AC50 is 0.517 µM [rising, full curve].

As for `Cc1ccc(NC(=O)C(=O)Nc2ccccn2)cc1`, the cell number change was determined as 3.33%.

Take `Cn1c(CNC(=O)Nc2cccc(Cl)c2)nnc1SCc1ccccc1`: the cell number change is -15.6%. Further, under setting [2], the AC50 was 0.164 µM [falling, full curve, poor fit].

Consider `NC(=O)CC(NC(=O)Cc1ccc(Cl)cc1)c1ccc(NCCN2CCOCC2)c([N+](=O)[O-])c1` (stereo not given), for which the cell number change was -11.4%. For the same compound, under setting [1], the concentration at half-maximal activity (AC50) is 9.2 µM [rising, partial curve].

For the compound `O=C1OC(c2ccc3c(c2)OCO3)=N/C1=C\c1ccc(C(=O)O)cc1`, the cell number change was determined as 3.26%. Besides, under setting [1], the concentration at half-maximal activity (AC50) is 0.00517 µM [falling, full curve, poor fit].

As to `COc1ccccc1OCc1cc(C(=O)NCc2ccc(N3CCCC3=O)cc2)no1`, the cell number change stood at 12.2%. Further, the AC50 under setting [2] was 0.13 µM [rising, full curve, poor fit].

Consider `Cc1nonc1OCCN1CCN(c2ccccc2[N+](=O)[O-])CC1`, for which the cell number change is 19.1%. Moreover, the AC50 under setting [2] was 0.58 µM [falling, single point]. Under setting [1], the AC50 was 0.58 µM [falling, single point].

In the case of `CC(C)CNC(=S)N1CCC(c2nc(-c3ccc(F)cc3)no2)CC1`, the AC50 reads like this: under setting [2], 1.46 µM [falling, partial curve]; under setting [1], 6.51 µM [rising, single point].

With `N#Cc1c(/N=C/N2CCCC2)oc(-c2ccccc2)c1-c1ccccc1`, the AC50 under setting [1] is 4.11 µM [rising, single point].

Consider `O=C(C1CC(=O)N(c2ccccc2)C1)N1CCN(c2ccccc2F)CC1` (stereo not given), for which the cell number change stood at 3.76%. Further, the AC50 under setting [1] is 6.51 µM [rising, single point].

In the case of `O=C(CSc1ccccn1)Nc1ccc(F)c([N+](=O)[O-])c1`, the cell number change turned out to be 41.3%.

In the case of `CN(C)CCNc1nc2sc3c(c2c(=O)n1Cc1ccccc1)CCCCC3`, the cell number change was 27.8%. Moreover, under setting [2], the AC50 is 0.146 µM [rising, full curve, poor fit]. Also, the half-maximal activity concentration (AC50) under setting [1] was 0.58 µM [falling, single point].

With `CCCn1nc(NC(=O)c2ccncc2)c2cc3ccccc3nc21`, the cell number change was -10.5%. In addition, the AC50 under setting [1] is 0.651 µM [rising, full curve, poor fit].

Consider `CC(Cl)C(=O)Nc1ccccc1C#N` (stereo not given), for which the cell number change is -23.8%.

For `CCOc1ccccc1-n1c(SCC(=O)N(C(C)C)C(C)C)nnc1-c1cccnc1`, the cell number change amounted to 44.2%. For the same compound, the half-maximal activity concentration (AC50) under setting [2] is 10.3 µM [rising, partial curve, poor fit].

Regarding `COc1ccc(S(=O)(=O)N2CCCCC2)cc1NS(=O)(=O)c1ccccc1F`, the cell number change was -44.8%.

In the case of `CCCCOCCCNC(=O)c1c(-c2ccccc2)noc1C`, the cell number change is 30.5%. For the same compound, the AC50 under setting [2] is 2.91 µM [rising, partial curve].

For `CCc1ccc(S(=O)(=O)Nc2ccc(-c3ccc4nnc(C)n4n3)cc2)s1`, the cell number change is -9.44%. Further, the half-maximal activity concentration (AC50) under setting [1] is 32.6 µM [falling, single point].

Regarding `COc1ccc(OC)c(C2CC(c3ccccc3)=NN2C(=S)Nc2ccccc2)c1` (stereo not given), the cell number change is 22.8%. Further, the AC50 under setting [1] was 0.146 µM [rising, full curve, poor fit].

Take `CC(=O)N(CN1C(=O)c2ccc([N+](=O)[O-])cc2C1=O)c1cccc(C(=O)O)c1`: the cell number change was 17.8%. In addition, the AC50 under setting [2] is 3.66 µM [falling, partial curve]. The AC50 under setting [1] is 6.51 µM [falling, single point].

In the case of `O=C(Oc1cccc(NC2=NS(=O)(=O)c3ccccc32)c1)c1ccncc1`, the cell number change is -28.2%.

As for `Cc1ccc(-n2c(=O)c3c4c(sc3n(Cc3cc(=O)n5ccccc5n3)c2=O)CCC4)cc1C`, the cell number change is -6.48%. Besides, the AC50 under setting [2] is 0.092 µM [rising, full curve, poor fit]. Besides, the AC50 under setting [1] is 2.59 µM [rising, partial curve].

`CC(C)OCCCNC(=O)c1ccc(C2SCC(=O)N2Cc2ccco2)cc1` (stereo not given): the cell number change came out at 31.9%. Under setting [2], the AC50 was 0.0731 µM [rising, full curve, poor fit].

Consider `Cc1nc(Oc2ccc(S(=O)(=O)N3CCOCC3)cc2Cl)c2c3c(sc2n1)CCCC3`, for which the cell number change worked out at 17.1%.

With `S=C(NCc1ccccc1)NCc1ccccc1Cl`, the cell number change amounted to 16.2%. Further, under setting [1], the concentration at half-maximal activity (AC50) is 6.51 µM [rising, single point].

`COc1ccccc1C1N(c2cc(Cl)ccc2OC)C(=O)C2CCCN21` (stereo not given): the cell number change was -26.6%. Further, under setting [1], the AC50 was 0.651 µM [falling, full curve].

As for `Cn1c2ccccc2c2nnc(SCC(=O)NCc3ccoc3)nc21`, the cell number change was determined as 31.2%. In addition, the AC50 under setting [2] is 29.1 µM [rising, single point].

For the compound `CCCc1cc2c(OC(=O)CC)c(-c3ccc(C(=O)OCC)o3)c(=O)oc2cc1OC`, the cell number change was -47.4%. Besides, the AC50 under setting [2] is 0.326 µM [falling, full curve]. In addition, the AC50 under setting [1] is 0.00517 µM [falling, full curve, poor fit].

On to `O=C(NN1CCCCC1)c1cccc2ccccc12`, for which the cell number change is 105%. For the same compound, the AC50 under setting [2] was 0.13 µM [rising, full curve, poor fit].

`CCn1c(=O)c(C(=O)CN2CCN(Cc3ccc4c(c3)OCO4)CC2)c(N)n(Cc2ccccc2)c1=O`: the cell number change amounted to 13.3%.

As to `CCOC(=O)c1cccc(NC(=O)Nc2ccc3c(c2)C(=O)OC3)c1`, the cell number change is 16.5%. In addition, under setting [1], the AC50 is 7.31 µM [rising, partial curve].

Turning to `CCc1cc2c(COC(=O)c3cccc(S(C)(=O)=O)c3)cc(=O)oc2cc1O`, the cell number change was determined as 10.3%. Moreover, the AC50 under setting [1] is 29.1 µM [falling, single point].

As to `CCCCCc1cc(=O)oc2c(C(CCN3CCCC3)c3cc(OC)c(OC)c(OC)c3)c(OC)cc(OC)c12` (stereo not given), the cell number change is -23.2%. Under setting [1], the AC50 is 16.4 µM [falling, single point].

Consider `COc1ccc2ncc(S(=O)(=O)c3ccccc3)c(N3CCN(c4ccccc4)CC3)c2c1`, for which the cell number change was found to be 0.0836%. In addition, the concentration at half-maximal activity (AC50) under setting [1] was 6.51 µM [rising, single point].

For the compound `COc1cc([N+](=O)[O-])ccc1NC(=S)Nc1cccc(C(=O)O)c1`, the AC50 under setting [1] was 10.3 µM [rising, partial curve, poor fit].

Take `O=C(NCCC1=CCCCC1)c1cc(-c2ccncc2)nc2ccccc12`: the cell number change is -44.7%.

For the compound `O=C(O)c1sc2cc(C(F)(F)F)cnc2c1-c1ccccc1`, the cell number change stood at 6.32%. For the same compound, the AC50 under setting [1] was 0.291 µM [rising, full curve].

In the case of `O=C(COC(=O)c1cn(-c2ccccc2)nc1-c1cccs1)NC1CC1`, the cell number change stood at 152%. For the same compound, the half-maximal activity concentration (AC50) under setting [2] was 20.6 µM [rising, partial curve]. The AC50 under setting [1] is 20.6 µM [rising, partial curve].

Turning to `COCc1ccc(C(=O)N2CCCC(CCC(=O)NCc3ccccc3F)C2)o1` (stereo not given), the cell number change is -21.8%. In addition, the concentration at half-maximal activity (AC50) under setting [1] is 0.731 µM [falling, partial curve, poor fit].

On to `COCCn1c(-c2ccc(OC)cc2)nc2ccccc21`, for which the cell number change was 5.17%. The concentration at half-maximal activity (AC50) under setting [1] is 0.58 µM [falling, single point].

Turning to `CC(=O)c1c(C)nc(-c2ccccc2)n1O`, the cell number change was -18%. Moreover, the AC50 under setting [1] was 6.51 µM [falling, single point].

For `O=C(CSC1CS(=O)(=O)c2cc([N+](=O)[O-])ccc21)NNC(=O)c1ccc(Cl)cc1` (stereo not given), the cell number change came out at 18.4%. In addition, the AC50 under setting [1] is 29.1 µM [rising, single point].

The record behind these values is PubChem BioAssay AID2685 (National Center for Advancing Translational Sciences (NCATS), 2010).
